Source: US20190177391A1, “ANGIOPOIETIN-LIKE PROTEIN 8 (ANGPTL8)” (BAYLOR RESEARCH INSTITUTE, priority 2016, published 2019)
No constants are given. Whether binding was seen depends on the method and setting. Binding calls can cover weak binding; strength is not graded here.

Biological target: T1, Paired immunoglobulin-like receptor B (PirB) (mouse) (UniProt P97484)
T1 sequence (looked up): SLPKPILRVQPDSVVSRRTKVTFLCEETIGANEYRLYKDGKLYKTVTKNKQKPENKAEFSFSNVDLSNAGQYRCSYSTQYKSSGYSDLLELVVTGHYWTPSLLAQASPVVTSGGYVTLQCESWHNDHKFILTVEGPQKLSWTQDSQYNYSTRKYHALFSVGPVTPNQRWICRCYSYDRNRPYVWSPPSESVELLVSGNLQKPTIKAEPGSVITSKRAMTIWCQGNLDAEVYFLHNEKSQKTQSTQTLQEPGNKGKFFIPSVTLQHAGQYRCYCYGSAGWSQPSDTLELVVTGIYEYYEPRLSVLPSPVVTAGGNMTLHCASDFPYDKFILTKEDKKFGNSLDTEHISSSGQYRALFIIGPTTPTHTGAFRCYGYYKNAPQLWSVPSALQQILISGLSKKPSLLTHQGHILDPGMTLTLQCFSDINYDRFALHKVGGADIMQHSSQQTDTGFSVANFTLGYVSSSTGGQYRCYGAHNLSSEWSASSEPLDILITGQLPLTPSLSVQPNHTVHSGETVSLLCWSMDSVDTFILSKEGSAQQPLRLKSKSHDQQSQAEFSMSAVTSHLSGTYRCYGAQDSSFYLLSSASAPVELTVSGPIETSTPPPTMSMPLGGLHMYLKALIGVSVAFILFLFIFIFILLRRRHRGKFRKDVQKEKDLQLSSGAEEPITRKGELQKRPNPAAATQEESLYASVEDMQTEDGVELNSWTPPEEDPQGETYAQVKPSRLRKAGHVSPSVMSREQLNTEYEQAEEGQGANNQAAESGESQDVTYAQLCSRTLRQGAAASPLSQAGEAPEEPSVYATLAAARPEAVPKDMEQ
Test: immunofluorescent staining of cultured mouse HL-1 atrial muscle cells treated with 0.5 uM ADM plus 2 ng of ANGPTL8 peptide; confocal microscopy

In the case of ANGPTL8 peptide (ligand), the binding was “binds”.
